Assay results from article PMC10259393, “The structural basis of the multi-step allosteric activation of Aurora B kinase” (eLife, 2023).
These are yes or no findings as the source states them, for the method shown. Some results given as binding are weak or reduced against the parent protein; the word gives no strength.

Amino acid sequences for entries named in this document (tags omitted). A change or cut given only in a name is not applied to a line headed by its entry. Chains listed by the source or under a name are the forms on record and can include a tag or linker. Residues count along the entry.
IN-box (790-856 aa) of INCENP from X. laevis, unphosphorylated, as in [Aurora B/IN-box]^no-P (O13024, residues 790-856): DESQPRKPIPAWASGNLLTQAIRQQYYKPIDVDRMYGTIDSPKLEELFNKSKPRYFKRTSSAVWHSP
IN-box (790-844 aa; IN-box^ΔC) fused to the N-terminus of the Mxe intein-chitin binding domain protein (O13024, residues 790-844): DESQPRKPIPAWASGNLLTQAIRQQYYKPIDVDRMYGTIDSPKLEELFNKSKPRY
UniProt Q6DE08: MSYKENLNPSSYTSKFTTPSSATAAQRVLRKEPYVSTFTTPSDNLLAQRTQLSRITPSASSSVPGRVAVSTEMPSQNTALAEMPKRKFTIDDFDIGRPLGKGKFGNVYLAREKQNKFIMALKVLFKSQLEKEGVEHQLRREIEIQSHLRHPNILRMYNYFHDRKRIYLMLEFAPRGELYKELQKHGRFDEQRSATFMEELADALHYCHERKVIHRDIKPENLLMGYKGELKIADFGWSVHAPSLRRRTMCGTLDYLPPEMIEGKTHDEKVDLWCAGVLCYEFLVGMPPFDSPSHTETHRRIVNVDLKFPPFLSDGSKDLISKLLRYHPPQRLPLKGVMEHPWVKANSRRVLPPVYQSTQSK

Columns and labels:
[1] = target: IN-box (790-844 aa; IN-box^ΔC) fused to the N-terminus of the Mxe intein-chitin binding domain protein (X. laevis) (UniProt O13024); experiment: co-purification; co-expressed in E. coli; IMAC, removal of 6xHis-GB1 from Aurora B by TEV, then held on chitin beads by the Mxe intein-chitin binding domain on IN-box^ΔC; eluted by overnight incubation with 50 mM MESNA
[2] = target: IN-box (790-856 aa) of INCENP from X. laevis, phosphorylated at Ser849 and Ser850 of the TSS motif, as in [Aurora B/IN-box]^all-P (X. laevis) (UniProt O13024); experiment: mass photometry; purified enzyme complex kept at 100 nM and diluted to 10 nM immediately before the measurement; 300 mM NaCl, 25 mM HEPES pH 7.5, 2 mM DTT; Refeyn Two MP; both purified
[3] = target: IN-box (790-856 aa) of INCENP from X. laevis, unphosphorylated, as in [Aurora B/IN-box]^no-P (X. laevis) (UniProt O13024); experiment: as above

| Substance | binding [1] | further results |
| --- | --- | --- |
| Aurora B (59-361 aa) from X. laevis, dephosphorylated, of the [Aurora B/IN-box]^IN-ΔC construct (from UniProt Q6DE08 59-361) (domain or fragment) | binds | – |
| Aurora B (59-361 aa) from X. laevis, phosphorylated at Thr248, of the [Aurora B/IN-box]^IN-ΔC construct (from UniProt Q6DE08 59-361) (domain or fragment) | binds | – |
| Aurora B (60-361 aa) from X. laevis, phosphorylated at Thr248, as in [Aurora B/IN-box]^all-P (from UniProt Q6DE08 60-361) (domain or fragment) | – | binding [2]: binds |
| Aurora B (60-361 aa) from X. laevis, unphosphorylated, as in [Aurora B/IN-box]^no-P (from UniProt Q6DE08 60-361) (domain or fragment) | – | binding [3]: binds |
